Experimental data published in the supplement of paper PMC10849652.
This is one part of the list.

Chains of the proteins cited; added tags and fusions are not shown. Lines headed by an entry give the natural chain unless they say otherwise; changes in a name come on top.
UniProt P51828: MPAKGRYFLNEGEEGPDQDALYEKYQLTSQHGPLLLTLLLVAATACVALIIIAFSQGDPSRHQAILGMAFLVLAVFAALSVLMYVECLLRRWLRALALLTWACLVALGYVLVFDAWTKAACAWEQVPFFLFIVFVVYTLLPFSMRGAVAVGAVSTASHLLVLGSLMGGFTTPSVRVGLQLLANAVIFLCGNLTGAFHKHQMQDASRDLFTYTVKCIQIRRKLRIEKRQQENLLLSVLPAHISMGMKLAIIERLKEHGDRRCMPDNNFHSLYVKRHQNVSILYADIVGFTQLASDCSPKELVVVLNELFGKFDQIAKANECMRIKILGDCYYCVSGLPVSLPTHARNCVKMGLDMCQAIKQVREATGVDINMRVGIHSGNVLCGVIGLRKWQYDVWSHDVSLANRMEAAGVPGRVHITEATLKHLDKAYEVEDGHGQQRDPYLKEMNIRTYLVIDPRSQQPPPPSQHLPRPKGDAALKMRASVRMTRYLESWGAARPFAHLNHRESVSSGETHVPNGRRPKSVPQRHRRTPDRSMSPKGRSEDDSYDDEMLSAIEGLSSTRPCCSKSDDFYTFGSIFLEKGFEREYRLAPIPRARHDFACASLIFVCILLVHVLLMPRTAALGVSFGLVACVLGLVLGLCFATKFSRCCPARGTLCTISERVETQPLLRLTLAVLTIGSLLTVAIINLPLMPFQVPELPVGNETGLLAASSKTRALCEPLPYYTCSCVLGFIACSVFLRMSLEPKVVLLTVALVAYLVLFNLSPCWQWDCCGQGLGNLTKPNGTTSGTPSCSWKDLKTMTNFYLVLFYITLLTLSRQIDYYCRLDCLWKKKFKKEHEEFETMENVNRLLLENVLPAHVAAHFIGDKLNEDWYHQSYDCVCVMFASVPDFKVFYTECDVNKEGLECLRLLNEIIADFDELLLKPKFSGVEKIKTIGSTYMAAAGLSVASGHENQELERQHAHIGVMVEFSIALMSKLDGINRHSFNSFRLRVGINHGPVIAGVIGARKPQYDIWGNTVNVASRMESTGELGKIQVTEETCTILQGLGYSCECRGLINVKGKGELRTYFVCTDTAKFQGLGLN
UniProt Q9Y4X0: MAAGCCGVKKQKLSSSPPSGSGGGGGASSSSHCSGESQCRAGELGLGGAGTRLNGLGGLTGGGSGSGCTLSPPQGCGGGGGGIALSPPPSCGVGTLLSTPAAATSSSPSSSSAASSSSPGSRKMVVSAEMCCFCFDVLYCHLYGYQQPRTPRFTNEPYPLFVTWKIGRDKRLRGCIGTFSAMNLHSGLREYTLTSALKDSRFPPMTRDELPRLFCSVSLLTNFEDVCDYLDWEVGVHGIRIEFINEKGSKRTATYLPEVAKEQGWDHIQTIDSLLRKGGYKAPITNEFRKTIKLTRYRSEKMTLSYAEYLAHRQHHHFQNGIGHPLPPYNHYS
UniProt Q9NVV5: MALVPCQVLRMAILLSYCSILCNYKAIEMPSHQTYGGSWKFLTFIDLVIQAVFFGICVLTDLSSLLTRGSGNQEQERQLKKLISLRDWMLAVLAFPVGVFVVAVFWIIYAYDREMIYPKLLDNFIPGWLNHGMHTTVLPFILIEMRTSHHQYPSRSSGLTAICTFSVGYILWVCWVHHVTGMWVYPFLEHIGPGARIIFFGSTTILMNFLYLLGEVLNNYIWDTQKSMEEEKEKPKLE
UniProt Q9NP73: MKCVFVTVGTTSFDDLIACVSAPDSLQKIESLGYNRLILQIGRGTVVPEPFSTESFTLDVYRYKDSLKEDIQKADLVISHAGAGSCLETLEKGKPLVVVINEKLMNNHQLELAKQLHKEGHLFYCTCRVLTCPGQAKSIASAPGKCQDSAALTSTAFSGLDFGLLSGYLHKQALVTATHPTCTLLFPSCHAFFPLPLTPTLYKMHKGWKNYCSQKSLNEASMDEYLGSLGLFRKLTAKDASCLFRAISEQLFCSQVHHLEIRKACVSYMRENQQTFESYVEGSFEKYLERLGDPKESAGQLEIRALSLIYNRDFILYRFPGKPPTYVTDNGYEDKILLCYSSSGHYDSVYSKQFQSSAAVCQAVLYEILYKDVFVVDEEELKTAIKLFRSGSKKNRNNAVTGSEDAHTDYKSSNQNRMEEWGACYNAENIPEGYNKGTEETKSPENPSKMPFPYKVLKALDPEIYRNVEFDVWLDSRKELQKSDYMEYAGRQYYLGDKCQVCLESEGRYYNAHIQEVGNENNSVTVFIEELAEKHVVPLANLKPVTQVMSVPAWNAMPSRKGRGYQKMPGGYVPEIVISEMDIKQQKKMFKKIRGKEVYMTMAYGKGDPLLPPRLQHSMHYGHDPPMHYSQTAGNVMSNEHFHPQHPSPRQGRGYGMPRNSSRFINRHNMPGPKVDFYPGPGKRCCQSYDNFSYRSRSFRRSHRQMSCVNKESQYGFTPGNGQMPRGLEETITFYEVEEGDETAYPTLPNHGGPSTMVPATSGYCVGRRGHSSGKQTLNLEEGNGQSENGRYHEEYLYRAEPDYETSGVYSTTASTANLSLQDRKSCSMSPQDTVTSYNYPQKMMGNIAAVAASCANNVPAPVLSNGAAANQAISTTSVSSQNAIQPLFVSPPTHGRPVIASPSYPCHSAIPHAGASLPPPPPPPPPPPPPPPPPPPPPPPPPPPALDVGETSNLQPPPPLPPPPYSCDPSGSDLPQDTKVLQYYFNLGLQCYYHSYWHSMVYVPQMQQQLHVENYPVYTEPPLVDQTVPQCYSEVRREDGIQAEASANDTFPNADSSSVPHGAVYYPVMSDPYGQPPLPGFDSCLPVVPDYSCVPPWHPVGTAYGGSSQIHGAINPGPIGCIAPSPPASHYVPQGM
UniProt Q9UPQ3: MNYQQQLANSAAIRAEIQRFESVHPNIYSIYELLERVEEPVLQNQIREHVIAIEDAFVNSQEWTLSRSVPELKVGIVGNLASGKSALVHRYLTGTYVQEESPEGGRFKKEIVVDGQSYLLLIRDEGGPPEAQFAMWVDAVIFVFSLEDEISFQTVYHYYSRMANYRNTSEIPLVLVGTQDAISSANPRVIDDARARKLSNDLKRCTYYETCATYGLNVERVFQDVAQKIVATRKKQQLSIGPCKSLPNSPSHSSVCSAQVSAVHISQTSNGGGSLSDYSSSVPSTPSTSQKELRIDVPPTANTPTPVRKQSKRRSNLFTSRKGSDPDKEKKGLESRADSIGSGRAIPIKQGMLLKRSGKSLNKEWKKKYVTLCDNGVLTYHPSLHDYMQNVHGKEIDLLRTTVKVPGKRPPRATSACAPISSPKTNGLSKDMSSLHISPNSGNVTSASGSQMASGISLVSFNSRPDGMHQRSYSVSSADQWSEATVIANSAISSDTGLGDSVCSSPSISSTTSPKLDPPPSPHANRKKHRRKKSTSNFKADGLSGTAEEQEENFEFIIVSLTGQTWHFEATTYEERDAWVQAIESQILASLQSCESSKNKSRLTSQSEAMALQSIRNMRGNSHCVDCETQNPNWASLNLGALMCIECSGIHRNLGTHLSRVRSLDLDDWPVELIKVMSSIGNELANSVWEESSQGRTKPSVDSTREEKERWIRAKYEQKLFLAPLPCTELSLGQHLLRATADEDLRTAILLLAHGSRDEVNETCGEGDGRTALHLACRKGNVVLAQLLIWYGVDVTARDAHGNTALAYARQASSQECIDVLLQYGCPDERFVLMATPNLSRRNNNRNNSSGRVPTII
UniProt Q13686: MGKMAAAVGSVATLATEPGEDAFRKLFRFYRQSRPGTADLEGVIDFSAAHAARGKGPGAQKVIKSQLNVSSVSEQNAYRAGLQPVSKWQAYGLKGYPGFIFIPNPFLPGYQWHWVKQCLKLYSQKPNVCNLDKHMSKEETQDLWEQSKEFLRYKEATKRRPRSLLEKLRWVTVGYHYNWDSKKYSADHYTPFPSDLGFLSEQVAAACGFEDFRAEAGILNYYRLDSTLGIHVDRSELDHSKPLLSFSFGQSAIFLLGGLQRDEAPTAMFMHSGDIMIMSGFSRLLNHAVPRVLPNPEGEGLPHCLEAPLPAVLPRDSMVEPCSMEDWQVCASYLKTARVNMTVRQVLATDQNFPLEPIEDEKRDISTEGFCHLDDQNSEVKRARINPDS
UniProt O60266: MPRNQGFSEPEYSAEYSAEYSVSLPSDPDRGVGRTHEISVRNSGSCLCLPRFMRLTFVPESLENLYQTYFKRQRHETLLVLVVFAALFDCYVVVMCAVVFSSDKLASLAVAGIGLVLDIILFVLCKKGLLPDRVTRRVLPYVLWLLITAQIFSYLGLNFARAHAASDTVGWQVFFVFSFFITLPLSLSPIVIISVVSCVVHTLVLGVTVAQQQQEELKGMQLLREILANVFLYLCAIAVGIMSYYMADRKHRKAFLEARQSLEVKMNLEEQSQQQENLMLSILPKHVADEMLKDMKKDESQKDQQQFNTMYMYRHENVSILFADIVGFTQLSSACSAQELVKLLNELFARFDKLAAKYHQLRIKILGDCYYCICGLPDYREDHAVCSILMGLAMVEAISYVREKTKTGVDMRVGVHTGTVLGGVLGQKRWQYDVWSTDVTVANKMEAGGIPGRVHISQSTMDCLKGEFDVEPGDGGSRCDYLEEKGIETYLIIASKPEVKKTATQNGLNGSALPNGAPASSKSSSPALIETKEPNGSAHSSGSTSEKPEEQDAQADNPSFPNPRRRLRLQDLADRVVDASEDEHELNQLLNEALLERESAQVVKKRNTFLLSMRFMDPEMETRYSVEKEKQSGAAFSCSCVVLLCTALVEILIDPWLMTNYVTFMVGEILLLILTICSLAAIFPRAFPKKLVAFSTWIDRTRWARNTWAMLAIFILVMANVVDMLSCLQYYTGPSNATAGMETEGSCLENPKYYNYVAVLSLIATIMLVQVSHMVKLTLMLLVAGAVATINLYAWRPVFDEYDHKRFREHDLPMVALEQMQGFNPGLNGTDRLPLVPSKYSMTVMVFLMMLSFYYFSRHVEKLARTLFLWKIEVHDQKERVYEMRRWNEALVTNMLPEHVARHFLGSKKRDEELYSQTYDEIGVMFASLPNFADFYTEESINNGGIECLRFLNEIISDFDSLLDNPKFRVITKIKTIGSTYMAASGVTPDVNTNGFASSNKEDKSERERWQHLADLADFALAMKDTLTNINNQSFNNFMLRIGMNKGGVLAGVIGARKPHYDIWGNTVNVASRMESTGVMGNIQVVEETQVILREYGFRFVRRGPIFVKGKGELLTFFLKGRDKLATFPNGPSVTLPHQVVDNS
UniProt P09917: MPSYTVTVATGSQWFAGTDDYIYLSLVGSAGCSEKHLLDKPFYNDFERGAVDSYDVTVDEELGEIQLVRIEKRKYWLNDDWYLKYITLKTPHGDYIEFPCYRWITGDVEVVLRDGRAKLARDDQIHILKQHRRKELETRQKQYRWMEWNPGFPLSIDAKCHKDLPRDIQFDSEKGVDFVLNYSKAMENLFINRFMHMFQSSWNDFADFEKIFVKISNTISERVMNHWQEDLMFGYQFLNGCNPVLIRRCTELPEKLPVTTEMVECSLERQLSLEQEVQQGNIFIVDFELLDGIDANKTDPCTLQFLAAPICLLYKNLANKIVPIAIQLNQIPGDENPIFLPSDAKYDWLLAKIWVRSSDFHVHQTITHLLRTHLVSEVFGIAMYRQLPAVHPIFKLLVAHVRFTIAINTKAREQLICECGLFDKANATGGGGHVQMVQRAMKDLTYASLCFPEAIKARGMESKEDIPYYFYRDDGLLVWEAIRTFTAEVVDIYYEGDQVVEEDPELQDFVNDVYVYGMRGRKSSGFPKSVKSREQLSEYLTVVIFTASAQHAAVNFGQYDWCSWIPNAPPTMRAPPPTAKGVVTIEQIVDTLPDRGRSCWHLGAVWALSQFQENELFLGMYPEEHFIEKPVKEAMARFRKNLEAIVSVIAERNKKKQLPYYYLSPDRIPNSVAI
UniProt Q86W34: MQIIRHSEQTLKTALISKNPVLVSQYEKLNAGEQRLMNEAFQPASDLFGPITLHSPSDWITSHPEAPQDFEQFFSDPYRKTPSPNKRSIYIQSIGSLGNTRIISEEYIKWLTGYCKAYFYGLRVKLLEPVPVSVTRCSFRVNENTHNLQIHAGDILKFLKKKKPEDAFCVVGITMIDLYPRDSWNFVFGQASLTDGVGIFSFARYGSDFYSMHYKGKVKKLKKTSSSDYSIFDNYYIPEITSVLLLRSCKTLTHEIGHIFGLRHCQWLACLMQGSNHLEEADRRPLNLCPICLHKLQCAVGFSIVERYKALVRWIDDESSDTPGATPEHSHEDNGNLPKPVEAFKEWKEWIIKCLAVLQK
UniProt P54922: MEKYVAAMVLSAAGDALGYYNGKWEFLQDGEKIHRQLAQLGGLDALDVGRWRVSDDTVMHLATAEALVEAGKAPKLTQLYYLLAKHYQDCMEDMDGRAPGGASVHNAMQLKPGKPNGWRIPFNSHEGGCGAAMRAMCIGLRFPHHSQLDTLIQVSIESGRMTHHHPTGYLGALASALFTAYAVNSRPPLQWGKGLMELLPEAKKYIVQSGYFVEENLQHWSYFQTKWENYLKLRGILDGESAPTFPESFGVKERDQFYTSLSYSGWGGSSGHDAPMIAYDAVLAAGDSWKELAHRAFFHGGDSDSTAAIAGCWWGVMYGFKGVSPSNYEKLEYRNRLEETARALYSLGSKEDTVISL

These targets were tested with CN1C2=C(C3=C1C(=O)N(N=C3)CC4=CC(=CC=C4)N)SC(=C2)S(=O)C (assay: log2 fold change, soluble protein after heating vs DMSO (PISA); higher = thermal stabilisation; K562 cells, 10 uM, 30 min; active = over 0.2 and 3.5 SD of the protein, either way, in both replicates (recomputed)).
Procedure, shortened: (§1)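 Aliquots of K562 cells (2×10^6 cells/mL) treated with 10 μM compound for 30 min were heated for 3 min over 48°C-58°C. After pooling and extraction in PBS with 0.5% NP-40 at 4°C, soluble protein from a 21,000xg, 90 min spin was quantified by TMTpro 16plex LC-MS/MS with channel sums equalised. Thermal stability is expressed against control samples, from duplicates, as a log2 fold change.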

Target	log2 fold change
ADCY7 (UniProt P51828)	inactive: 0.132
AMMECR1 (UniProt Q9Y4X0)	inactive: 0.206
AGTPBP1 isoform 3 (UniProt Q9UPW5)	inactive: 0.103
AMBRA1 isoform 5 (UniProt Q9C0C7)	inactive: -0.014
AKR1D1 (UniProt P51857)	inactive: 0.139
AIG1 (UniProt Q9NVV5)	inactive: 0.297
ALG13 isoform 2 (UniProt Q9NP73)	inactive: 0.07
AGAP1 (UniProt Q9UPQ3)	inactive: -0.01
ALKBH1 (UniProt Q13686)	inactive: -0.048
ADIPOR2 (UniProt Q86V24)	inactive: -0.09
ADGRD1 isoform 4 (UniProt Q6QNK2)	inactive: 0.126
AFF4 (UniProt Q9UHB7)	inactive: -0.049
ADCY3 (UniProt O60266)	inactive: -0.016
ALOX5 (UniProt P09917)	inactive: -0.146
ALDH3A2 isoform 2 (UniProt P51648)	inactive: 0.2
AMZ2 (UniProt Q86W34)	inactive: 0.121

Each target was assayed with CN1CCC(CNc2ccc3ncc(-c4cccc(OC(F)(F)F)c4)n3n2)CC1 in the same assay as above.
Procedure, shortened: as §1

Target	log2 fold change
ADCY7 (UniProt P51828)	inactive: -0.032
AKR1D1 (UniProt P51857)	inactive: 0.124
AIG1 (UniProt Q9NVV5)	inactive: 0
ALG13 isoform 2 (UniProt Q9NP73)	inactive: 0.046
ALKBH7 (UniProt Q9BT30)	inactive: -0.2
ALKBH1 (UniProt Q13686)	inactive: -0.071
ADGRL1 (UniProt O94910)	inactive: 0.092
ADIPOR2 (UniProt Q86V24)	inactive: -0.131
AFF4 (UniProt Q9UHB7)	inactive: -0.01
ADCY3 (UniProt O60266)	inactive: -0.173
ADPRH (UniProt P54922)	inactive: -0.313
ADNP (UniProt Q9H2P0)	inactive: -0.166
ADD1 isoform 4 (UniProt P35611)	inactive: 0.086

Each target was assayed with CN1CCN(CCOc2cc(OC3CCOCC3)c3c(Nc4c(Cl)ccc5c4OCO5)ncnc3c2)CC1 [saracatinib] in the same assay as above.
Procedure, shortened: as §1

Target	log2 fold change
ADCY7 (UniProt P51828)	inactive: 0.008
AMMECR1 (UniProt Q9Y4X0)	inactive: -0.09
AGTPBP1 isoform 3 (UniProt Q9UPW5)	inactive: 0.123
AMBRA1 isoform 5 (UniProt Q9C0C7)	inactive: 0.073
AKR1D1 (UniProt P51857)	inactive: -0.178
AIG1 (UniProt Q9NVV5)	inactive: 0.048
ALG13 isoform 2 (UniProt Q9NP73)	inactive: 0.022
AGAP1 (UniProt Q9UPQ3)	inactive: -0.035
ALKBH1 (UniProt Q13686)	inactive: 0.111
ADIPOR2 (UniProt Q86V24)	inactive: 0.115
ADGRD1 isoform 4 (UniProt Q6QNK2)	inactive: -0.12
AFF4 (UniProt Q9UHB7)	inactive: 0.205
ADCY3 (UniProt O60266)	inactive: 0.036
ALOX5 (UniProt P09917)	inactive: 0.083
ALDH3A2 isoform 2 (UniProt P51648)	inactive: 0.122
AMZ2 (UniProt Q86W34)	inactive: 0.06

These targets were tested with CN1CCN(c2nc(C3=C(c4c[nH]c5ccccc45)C(=O)NC3=O)c3ccccc3n2)CC1 [sotrastaurin] in the same assay as above.
Procedure, shortened: as §1

Target	log2 fold change
ALDH1L1 isoform 3 (UniProt O75891)	inactive: 0.097
AIF1 (UniProt P55008)	inactive: 0.025
AFF4 (UniProt Q9UHB7)	inactive: -0.365
ADCY3 (UniProt O60266)	inactive: -0.028
ADD2 isoform 9 (UniProt P35612)	inactive: -0.122
ADPRH (UniProt P54922)	inactive: -0.067
ADNP (UniProt Q9H2P0)	inactive: -0.024
ALDOB (UniProt P05062)	inactive: -0.015
ADH1A (UniProt P07327)	inactive: 0.113
AMZ2 (UniProt Q86W34)	inactive: -0.111
ADPRM (UniProt Q3LIE5)	inactive: 0.13
AKNA (UniProt Q7Z591)	inactive: -0.017

The targets below were run with CN1CC[C@H](c2c(O)cc(O)c3c(=O)cc(-c4ccccc4Cl)oc23)[C@H](O)C1 [alvocidib] in the same assay as above.
Procedure, shortened: as §1

Target	log2 fold change
ADCY7 (UniProt P51828)	inactive: -0.036
AMMECR1 (UniProt Q9Y4X0)	inactive: -0.172
AMBRA1 isoform 5 (UniProt Q9C0C7)	inactive: -0.109
AKR1D1 (UniProt P51857)	inactive: 0.061
AGAP1 (UniProt Q9UPQ3)	inactive: -0.162
ALKBH7 (UniProt Q9BT30)	inactive: 0.176
ALKBH1 (UniProt Q13686)	inactive: 0.039
ADIPOR2 (UniProt Q86V24)	inactive: -0.109
ADGRD1 isoform 4 (UniProt Q6QNK2)	inactive: 0.048
ADCY3 (UniProt O60266)	inactive: -0.105

Each target was assayed with CN1CCc2c(c3ccccc3n2Cc2ccc(C(=O)NO)cc2)C1 [Tubastatin A] in the same assay as above.
Procedure, shortened: as §1

Target	log2 fold change
AMBRA1 isoform 5 (UniProt Q9C0C7)	inactive: -0.179
AKR1D1 (UniProt P51857)	inactive: -0.074
AIG1 (UniProt Q9NVV5)	inactive: -0.213
ALKBH1 (UniProt Q13686)	inactive: -0.25
ADIPOR2 (UniProt Q86V24)	inactive: -0.062
ADGRD1 isoform 4 (UniProt Q6QNK2)	inactive: 0.031
ALS2 (UniProt Q96Q42)	inactive: 0.014
ADCY3 (UniProt O60266)	inactive: 0.046
ALOX5 (UniProt P09917)	inactive: 0.08
ADPRH (UniProt P54922)	inactive: 0.213
